Data: US8980830B2 (priority 2007, dated 2015)
For part of these data: End groups of sequences in plain letters are not given here.

Experiments:
[1] = solid-phase peptide synthesis
[2] = Fmoc solid-phase peptide synthesis; Rink MBHA amide resin; HBTU (Boc); DIC/HOBT (Fmoc); BEPBT/DEPBT for PLA coupling and lactam formation; details: whole synthesis, scale 0.1 mmole
[3] = whole synthesis, analytical HPLC, Zorbax C8, 214 nm, MALDI or ESI-MS, scale of the general procedure 0.2 mmole (Boc), 0.1 mmole (Fmoc)

Row | Substance | final HPLC purity [1, 3] | final HPLC purity ([1]; conjugation step, 214 nm) | also measured
1 | PLA TSDYSKYLDERRAKDFVQWLMDT (SEQ ID NO: 6) | 95% |  | isolated yield ([1]; whole synthesis, overall, scale of the general procedure 0.2 mmole (Boc), 0.1 mmole (Fmoc)): 10˜15%; isolated mass ([1]; whole synthesis, scale 0.1 mmole): 20˜30 mg; crude mass [2]: 150 to 250 mg
2 | [PLA6, E16K20(Lactam), C24(20 kDa), D28]G(6-29) (FTSDYSKYLDERRAKDFVCWLMDT; PLA6, E16-K20 lactam, 20 kDa PEG on C24, amide) |  | 90% HPLC purity | 
3 | Glucagon Cys^17 Mal-PEG-5K |  | aprox. 90% | 
4 | Glucagon Cys^24 Mal-PEG-20K |  |  | final HPLC purity ([1]; conjugation step, analytical HPLC, Zorbax C8, 214 nm, MALDI or ESI-MS): ˜90%
5 | HSQGTFTSDYSKYLDSRRAQDFVQWLMNTGPSSGAPPPS | greater than 95% |  | 
6 | Glucagon Cys^29 Mal-PEG-5K |  | greater than 95% | 
